{"source": "PubChem BioAssay AID504774 (Drosophila RNAi Screening Center, 2011)", "aim": "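Fly genes whose loss alters survival after alkylation damage to DNA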 (primary screen)", "system": "Drosophila Kc167 cells", "reagent": "long dsRNA against Drosophila genes, about 0.25 µg dsRNA per well", "timing": "about 6 days: 3 days knock-down, then 3 days with or without MMS", "challenge": "methyl methanesulphonate 0.004% (w/v) for 3 days after knock-down", "measured": "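ATP-dependent luminescence as a measure of live cells in MMS-exposed wells, quantile normalised within each plate, with replicate values also given as a mean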", "reading the numbers": "mean viability with MMS: higher = more surviving cells after MMS", "note": "In all, the deposit lists about 23,000 reagents; this is a random part of those with a known target gene and a result. 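Values are quantile-normalised luminescence on an arbitrary scale; higher means more cells surviving MMS.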 A plus sign joins genes that one reagent is predicted to hit. Not all columns of the deposit are shown."}
{"Gene": "twi (twist)", "DRSC id": "DRSC04720", "mean viability with MMS": 3.20e6}
{"Gene": "twi (twist)", "DRSC id": "DRSC23185", "mean viability with MMS": 3.58e6}
{"Gene": "Naus (Nausicaa)", "DRSC id": "DRSC06011", "mean viability with MMS": 3.36e6}
{"Gene": "Naus (Nausicaa)", "DRSC id": "DRSC06469", "mean viability with MMS": 3.37e6}
{"Gene": "CG32278 + CG14963", "DRSC id": "DRSC22203", "mean viability with MMS": 3.59e6}
{"Gene": "CG14915", "DRSC id": "DRSC02399", "mean viability with MMS": 3.65e6}
{"Gene": "l(3)72Dp (lethal (3) 72Dp)", "DRSC id": "DRSC10477", "mean viability with MMS": 3.55e6}
{"Gene": "Ufd1 (Ubiquitin fusion-degradation 1-like)", "DRSC id": "DRSC10607", "mean viability with MMS": 3.46e6}
{"Gene": "prod (proliferation disrupter)", "DRSC id": "DRSC07667", "mean viability with MMS": 3.56e6}
{"Gene": "CG11970", "DRSC id": "DRSC14157", "mean viability with MMS": 3.67e6}
{"Gene": "primo-2 + primo-1", "DRSC id": "DRSC16511", "mean viability with MMS": 3.52e6}
{"Gene": "I-3 (Inhibitor-3)", "DRSC id": "DRSC20479", "mean viability with MMS": 3.50e6}
{"Gene": "SP (Sex Peptide)", "DRSC id": "DRSC09664", "mean viability with MMS": 3.61e6}
{"Gene": "CG14696", "DRSC id": "DRSC14919", "mean viability with MMS": 3.38e6}
{"Gene": "CG30344", "DRSC id": "DRSC22510", "mean viability with MMS": 3.63e6}
{"Gene": "CG17739", "DRSC id": "DRSC06689", "mean viability with MMS": 3.54e6}
{"Gene": "mil (milkah)", "DRSC id": "DRSC15696", "mean viability with MMS": 3.68e6}
{"Gene": "CG14346", "DRSC id": "DRSC00376", "mean viability with MMS": 3.43e6}
{"Gene": "CG15629", "DRSC id": "DRSC00464", "mean viability with MMS": 3.59e6}
{"Gene": "mAChR-B (muscarinic Acetylcholine Receptor, B-type)", "DRSC id": "DRSC16345", "mean viability with MMS": 3.43e6}
{"Gene": "CG6695", "DRSC id": "DRSC16098", "mean viability with MMS": 3.60e6}
{"Gene": "CG13445", "DRSC id": "DRSC09992", "mean viability with MMS": 3.53e6}
{"Gene": "CycG (Cyclin G)", "DRSC id": "DRSC14324", "mean viability with MMS": 3.45e6}
{"Gene": "CycG (Cyclin G)", "DRSC id": "DRSC23345", "mean viability with MMS": 3.06e6}
{"Gene": "TwdlU (TweedleU)", "DRSC id": "DRSC12224", "mean viability with MMS": 3.42e6}

Individual results from above:
Under “mean viability with MMS”, CG30344 [DRSC22510] is entered as 3.63e6
Under “mean viability with MMS”, CG32278 + CG14963 [DRSC22203] shows 3.59e6

Continued.
{"Gene": "kl-3 (retired record)", "DRSC id": "DRSC20730", "mean viability with MMS": 2.46e6}
{"Gene": "kl-3 (retired record)", "DRSC id": "DRSC20891", "mean viability with MMS": 3.51e6}
{"Gene": "kl-3 (retired record)", "DRSC id": "DRSC20934", "mean viability with MMS": 2.27e6}
{"Gene": "fne (found in neurons)", "DRSC id": "DRSC20332", "mean viability with MMS": 3.46e6}
{"Gene": "fne (found in neurons)", "DRSC id": "DRSC22418", "mean viability with MMS": 3.59e6}
{"Gene": "sba (six-banded)", "DRSC id": "DRSC13643", "mean viability with MMS": 3.13e6}
{"Gene": "sba (six-banded)", "DRSC id": "DRSC17050", "mean viability with MMS": 3.61e6}
{"Gene": "CG9705", "DRSC id": "DRSC11094", "mean viability with MMS": 3.73e6}
{"Gene": "CG13229", "DRSC id": "DRSC06349", "mean viability with MMS": 3.48e6}
{"Gene": "lectin-46Ca", "DRSC id": "DRSC06612", "mean viability with MMS": 3.51e6}
{"Gene": "CG32639", "DRSC id": "DRSC18972", "mean viability with MMS": 3.25e6}
{"Gene": "Tango6 (Transport and Golgi organization 6)", "DRSC id": "DRSC02671", "mean viability with MMS": 3.46e6}
{"Gene": "CG31534 (retired record)", "DRSC id": "DRSC12141", "mean viability with MMS": 3.44e6}
{"Gene": "CG31534 (retired record)", "DRSC id": "DRSC12289", "mean viability with MMS": 3.49e6}
{"Gene": "CG9029", "DRSC id": "DRSC03129", "mean viability with MMS": 3.61e6}
{"Gene": "CG8839", "DRSC id": "DRSC07285", "mean viability with MMS": 3.52e6}
{"Gene": "sona (sol narae)", "DRSC id": "DRSC04089", "mean viability with MMS": 3.53e6}
{"Gene": "sona (sol narae)", "DRSC id": "DRSC04574", "mean viability with MMS": 3.28e6}
{"Gene": "sona (sol narae)", "DRSC id": "DRSC04575", "mean viability with MMS": 3.43e6}
{"Gene": "dcma (decima)", "DRSC id": "DRSC00246", "mean viability with MMS": 3.62e6}
{"Gene": "dcma (decima)", "DRSC id": "DRSC00338", "mean viability with MMS": 3.74e6}
